In patent US4876243A, “Vasopressin compounds” (Smithkline Beckman Corporation, priority 1987, dated 1989):
Not every detail of the peptide structures is certain; ends, links or a residue may be inferred. *1 amine or outer side, *2 acyl side, *3 side chain or, on linkers, in order; H or OH if unused. Where a SMILES comes first, the peptide text is derived from it. Bridges are numbered along the chain shown (N, C = ends). [ ]: non-standard residue; d: D form. X1 = O=C(CC1(S[*:2])CCCCC1)[*:1]; αMeV = CC(C)[C@](C)(N)C(=O)O

The chains behind the UniProt entries cited, without tags or fusion partners.
UniProt Q00788, whole entry: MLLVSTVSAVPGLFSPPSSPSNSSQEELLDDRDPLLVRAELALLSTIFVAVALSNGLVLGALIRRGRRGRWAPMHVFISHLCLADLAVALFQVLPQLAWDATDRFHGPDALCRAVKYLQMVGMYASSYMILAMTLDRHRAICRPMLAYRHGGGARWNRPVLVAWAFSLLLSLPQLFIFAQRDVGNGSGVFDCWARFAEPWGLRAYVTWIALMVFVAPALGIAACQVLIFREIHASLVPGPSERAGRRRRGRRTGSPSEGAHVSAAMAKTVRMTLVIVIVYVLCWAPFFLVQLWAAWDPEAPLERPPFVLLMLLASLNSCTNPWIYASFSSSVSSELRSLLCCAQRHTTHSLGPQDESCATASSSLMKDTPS

molecular target: T1, V2-vasopressin receptors (Rattus norvegicus, UniProt Q00788); test: in vivo diuretic activity in the hydropenic rat
T1 construct: in vivo diuretic activity in the hydropenic rat; from tissue; host or cells: whole animal (hydropenic rat)

First: CCOc1ccc(C[C@H]2NC(=O)CC3(CCCCC3)SSC[C@@H](C(=O)N3CCC[C@H]3C(=O)N[C@@H](CCCNC(=N)N)C(=O)NCC(N)=O)NC(=O)[C@H](CC(N)=O)NC(=O)[C@](C)(C(C)C)NC(=O)[C@H](Cc3ccccc3)NC2=O)cc1 [C, [1-(β,β-cyclopentamethylene-β-mercaptopropionic acid)-2-(O-ethyl-D-tyrosine)-4-α-methylvaline-8-arginine]vasopressin] ([dY](Et)F[αMeV]NCPRG-NH2; linker N-5 via X1)
Second: COc1ccc(C[C@@H]2NC(=O)CC3(CCCCC3)SSC[C@@H](C(=O)N3CCC[C@H]3C(=O)N[C@@H](CCCNC(=N)N)C(=O)NCC(N)=O)NC(=O)[C@H](CC(N)=O)NC(=O)[C@](C)(C(C)C)NC(=O)[C@H](Cc3ccccc3)NC2=O)cc1 [D, [1-(β,β-cyclopentamethylene-β-mercaptopropionic acid)-2-(O-methyl L-tyrosine)-4-α-methylvaline-8-arginine]vasopressin] (Y(Me)F[αMeV]NCPRG-NH2; linker N-5 via X1)
The “Rat V2 ED300” value of the first is 3.4-fold lower: 0.018 mg/kg for the first, 0.061 mg/kg for the second.

`COc1ccc(C[C@@H]2NC(=O)CC3(CCCCC3)SSC[C@@H](C(=O)N3CCC[C@H]3C(=O)N[C@@H](CCCNC(=N)N)C(=O)NCC(N)=O)NC(=O)[C@H](CC(N)=O)NC(=O)[C@H](C(C)C)NC(=O)[C@H](Cc3ccccc3)NC2=O)cc1` [F, [1-(β,β-cyclopentamethylene-β-mercaptopropionic acid)-2-(O-methyl-L-tyrosine)-4-valine-8-arginine]vasopressin, reference compound] (Y(Me)FVNCPRG-NH2; linker N-5 via X1) was tested, and the “Rat V2 ED300” value was 0.098 mg/kg.
